The results in this text go back to publication PMC8989540.

Protein sequences, listed by entry. Tags and fused reporters are not part of them.
UniProt Q6PDQ2: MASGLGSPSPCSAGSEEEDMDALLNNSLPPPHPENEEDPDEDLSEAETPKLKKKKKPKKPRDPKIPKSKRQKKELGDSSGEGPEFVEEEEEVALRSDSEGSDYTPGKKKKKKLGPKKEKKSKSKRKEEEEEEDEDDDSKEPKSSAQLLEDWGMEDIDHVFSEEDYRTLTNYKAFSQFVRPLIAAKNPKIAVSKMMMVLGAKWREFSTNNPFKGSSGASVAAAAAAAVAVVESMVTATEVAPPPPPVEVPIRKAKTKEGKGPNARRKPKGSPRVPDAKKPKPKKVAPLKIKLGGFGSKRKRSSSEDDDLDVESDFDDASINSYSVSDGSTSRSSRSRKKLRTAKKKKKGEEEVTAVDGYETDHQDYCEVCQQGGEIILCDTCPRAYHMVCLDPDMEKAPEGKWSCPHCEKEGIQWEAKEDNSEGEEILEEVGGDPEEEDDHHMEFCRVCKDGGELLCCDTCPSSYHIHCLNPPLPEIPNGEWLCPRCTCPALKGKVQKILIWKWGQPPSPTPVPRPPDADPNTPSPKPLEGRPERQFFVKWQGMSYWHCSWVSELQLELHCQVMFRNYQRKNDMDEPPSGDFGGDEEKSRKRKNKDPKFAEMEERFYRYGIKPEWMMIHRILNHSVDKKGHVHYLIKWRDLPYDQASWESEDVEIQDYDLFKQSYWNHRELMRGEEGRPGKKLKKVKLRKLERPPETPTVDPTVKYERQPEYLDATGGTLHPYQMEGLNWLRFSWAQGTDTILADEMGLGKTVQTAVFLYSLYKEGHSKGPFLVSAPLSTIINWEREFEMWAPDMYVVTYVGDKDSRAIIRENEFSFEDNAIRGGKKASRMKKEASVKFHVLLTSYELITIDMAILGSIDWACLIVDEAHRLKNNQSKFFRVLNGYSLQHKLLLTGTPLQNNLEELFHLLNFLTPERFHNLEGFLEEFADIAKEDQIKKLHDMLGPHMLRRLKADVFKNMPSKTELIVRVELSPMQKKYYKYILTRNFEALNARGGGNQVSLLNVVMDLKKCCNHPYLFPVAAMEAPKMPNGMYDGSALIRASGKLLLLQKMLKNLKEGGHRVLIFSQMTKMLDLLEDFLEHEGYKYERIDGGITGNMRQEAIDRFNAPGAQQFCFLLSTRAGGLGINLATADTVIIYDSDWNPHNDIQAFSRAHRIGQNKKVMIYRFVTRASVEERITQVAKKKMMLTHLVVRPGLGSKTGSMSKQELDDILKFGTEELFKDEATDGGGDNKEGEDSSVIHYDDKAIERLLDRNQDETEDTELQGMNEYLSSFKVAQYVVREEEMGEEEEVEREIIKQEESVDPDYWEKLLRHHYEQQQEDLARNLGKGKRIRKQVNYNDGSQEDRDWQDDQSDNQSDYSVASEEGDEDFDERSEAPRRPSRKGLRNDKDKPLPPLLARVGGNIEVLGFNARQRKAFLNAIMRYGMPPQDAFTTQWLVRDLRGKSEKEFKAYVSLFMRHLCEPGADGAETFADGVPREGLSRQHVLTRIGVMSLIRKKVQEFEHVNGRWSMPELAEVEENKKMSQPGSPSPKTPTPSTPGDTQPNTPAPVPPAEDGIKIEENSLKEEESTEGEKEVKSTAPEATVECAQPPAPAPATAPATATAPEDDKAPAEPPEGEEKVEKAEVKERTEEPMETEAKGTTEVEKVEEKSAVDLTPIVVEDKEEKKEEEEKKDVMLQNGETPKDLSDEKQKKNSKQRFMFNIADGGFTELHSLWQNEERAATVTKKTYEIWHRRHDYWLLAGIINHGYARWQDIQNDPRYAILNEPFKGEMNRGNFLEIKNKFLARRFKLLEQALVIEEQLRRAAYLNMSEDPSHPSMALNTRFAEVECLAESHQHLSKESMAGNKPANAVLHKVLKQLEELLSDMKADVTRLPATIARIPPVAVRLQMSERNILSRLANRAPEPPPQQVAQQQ
UniProt Q14839: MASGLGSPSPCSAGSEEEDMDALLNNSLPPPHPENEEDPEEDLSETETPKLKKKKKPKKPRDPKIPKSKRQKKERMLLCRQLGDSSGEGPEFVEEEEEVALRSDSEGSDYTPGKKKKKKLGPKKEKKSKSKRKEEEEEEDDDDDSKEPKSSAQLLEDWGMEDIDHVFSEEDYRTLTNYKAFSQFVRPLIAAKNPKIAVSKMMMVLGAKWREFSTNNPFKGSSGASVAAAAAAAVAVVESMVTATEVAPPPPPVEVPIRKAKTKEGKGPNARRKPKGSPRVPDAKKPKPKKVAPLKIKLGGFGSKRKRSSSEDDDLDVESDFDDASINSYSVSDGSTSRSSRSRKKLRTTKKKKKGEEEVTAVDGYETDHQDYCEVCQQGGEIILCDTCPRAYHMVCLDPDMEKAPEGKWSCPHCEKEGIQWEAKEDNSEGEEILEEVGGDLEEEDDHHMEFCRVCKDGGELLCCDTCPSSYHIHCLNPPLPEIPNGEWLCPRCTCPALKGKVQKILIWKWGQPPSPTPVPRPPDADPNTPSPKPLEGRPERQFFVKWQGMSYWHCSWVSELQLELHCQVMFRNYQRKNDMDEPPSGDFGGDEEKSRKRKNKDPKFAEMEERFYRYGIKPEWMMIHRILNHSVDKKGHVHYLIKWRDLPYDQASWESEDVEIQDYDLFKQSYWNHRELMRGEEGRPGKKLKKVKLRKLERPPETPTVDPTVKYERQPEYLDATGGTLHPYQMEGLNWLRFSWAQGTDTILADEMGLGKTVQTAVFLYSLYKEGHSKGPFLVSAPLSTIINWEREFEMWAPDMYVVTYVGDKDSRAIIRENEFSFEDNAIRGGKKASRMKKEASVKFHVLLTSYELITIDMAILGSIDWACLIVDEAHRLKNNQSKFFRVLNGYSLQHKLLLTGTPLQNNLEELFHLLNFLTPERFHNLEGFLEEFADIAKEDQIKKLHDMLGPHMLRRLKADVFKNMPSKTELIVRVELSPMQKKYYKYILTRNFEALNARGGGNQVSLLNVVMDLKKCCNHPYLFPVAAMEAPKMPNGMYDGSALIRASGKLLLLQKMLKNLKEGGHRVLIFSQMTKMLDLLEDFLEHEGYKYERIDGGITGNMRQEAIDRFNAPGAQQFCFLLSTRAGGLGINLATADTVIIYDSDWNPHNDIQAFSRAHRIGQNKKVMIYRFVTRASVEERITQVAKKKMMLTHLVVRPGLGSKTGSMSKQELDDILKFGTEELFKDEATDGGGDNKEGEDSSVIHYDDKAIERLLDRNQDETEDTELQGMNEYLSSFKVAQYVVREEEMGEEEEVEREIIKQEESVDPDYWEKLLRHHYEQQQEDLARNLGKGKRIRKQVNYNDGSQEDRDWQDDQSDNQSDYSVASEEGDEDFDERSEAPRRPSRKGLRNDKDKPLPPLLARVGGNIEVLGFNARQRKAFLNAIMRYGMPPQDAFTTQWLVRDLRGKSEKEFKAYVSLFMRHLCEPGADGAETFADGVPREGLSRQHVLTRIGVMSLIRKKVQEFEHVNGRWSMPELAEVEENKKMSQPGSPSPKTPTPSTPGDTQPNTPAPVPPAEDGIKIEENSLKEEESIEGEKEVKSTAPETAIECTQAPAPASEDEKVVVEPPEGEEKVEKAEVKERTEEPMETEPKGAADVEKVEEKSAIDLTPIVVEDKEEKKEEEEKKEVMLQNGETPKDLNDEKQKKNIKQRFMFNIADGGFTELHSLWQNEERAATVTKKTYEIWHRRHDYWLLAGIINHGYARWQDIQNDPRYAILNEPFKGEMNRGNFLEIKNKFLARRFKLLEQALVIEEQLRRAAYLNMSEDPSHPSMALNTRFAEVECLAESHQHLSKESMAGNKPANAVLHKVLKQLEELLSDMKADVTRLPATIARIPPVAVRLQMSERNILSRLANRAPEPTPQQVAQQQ
UniProt Q3URK3: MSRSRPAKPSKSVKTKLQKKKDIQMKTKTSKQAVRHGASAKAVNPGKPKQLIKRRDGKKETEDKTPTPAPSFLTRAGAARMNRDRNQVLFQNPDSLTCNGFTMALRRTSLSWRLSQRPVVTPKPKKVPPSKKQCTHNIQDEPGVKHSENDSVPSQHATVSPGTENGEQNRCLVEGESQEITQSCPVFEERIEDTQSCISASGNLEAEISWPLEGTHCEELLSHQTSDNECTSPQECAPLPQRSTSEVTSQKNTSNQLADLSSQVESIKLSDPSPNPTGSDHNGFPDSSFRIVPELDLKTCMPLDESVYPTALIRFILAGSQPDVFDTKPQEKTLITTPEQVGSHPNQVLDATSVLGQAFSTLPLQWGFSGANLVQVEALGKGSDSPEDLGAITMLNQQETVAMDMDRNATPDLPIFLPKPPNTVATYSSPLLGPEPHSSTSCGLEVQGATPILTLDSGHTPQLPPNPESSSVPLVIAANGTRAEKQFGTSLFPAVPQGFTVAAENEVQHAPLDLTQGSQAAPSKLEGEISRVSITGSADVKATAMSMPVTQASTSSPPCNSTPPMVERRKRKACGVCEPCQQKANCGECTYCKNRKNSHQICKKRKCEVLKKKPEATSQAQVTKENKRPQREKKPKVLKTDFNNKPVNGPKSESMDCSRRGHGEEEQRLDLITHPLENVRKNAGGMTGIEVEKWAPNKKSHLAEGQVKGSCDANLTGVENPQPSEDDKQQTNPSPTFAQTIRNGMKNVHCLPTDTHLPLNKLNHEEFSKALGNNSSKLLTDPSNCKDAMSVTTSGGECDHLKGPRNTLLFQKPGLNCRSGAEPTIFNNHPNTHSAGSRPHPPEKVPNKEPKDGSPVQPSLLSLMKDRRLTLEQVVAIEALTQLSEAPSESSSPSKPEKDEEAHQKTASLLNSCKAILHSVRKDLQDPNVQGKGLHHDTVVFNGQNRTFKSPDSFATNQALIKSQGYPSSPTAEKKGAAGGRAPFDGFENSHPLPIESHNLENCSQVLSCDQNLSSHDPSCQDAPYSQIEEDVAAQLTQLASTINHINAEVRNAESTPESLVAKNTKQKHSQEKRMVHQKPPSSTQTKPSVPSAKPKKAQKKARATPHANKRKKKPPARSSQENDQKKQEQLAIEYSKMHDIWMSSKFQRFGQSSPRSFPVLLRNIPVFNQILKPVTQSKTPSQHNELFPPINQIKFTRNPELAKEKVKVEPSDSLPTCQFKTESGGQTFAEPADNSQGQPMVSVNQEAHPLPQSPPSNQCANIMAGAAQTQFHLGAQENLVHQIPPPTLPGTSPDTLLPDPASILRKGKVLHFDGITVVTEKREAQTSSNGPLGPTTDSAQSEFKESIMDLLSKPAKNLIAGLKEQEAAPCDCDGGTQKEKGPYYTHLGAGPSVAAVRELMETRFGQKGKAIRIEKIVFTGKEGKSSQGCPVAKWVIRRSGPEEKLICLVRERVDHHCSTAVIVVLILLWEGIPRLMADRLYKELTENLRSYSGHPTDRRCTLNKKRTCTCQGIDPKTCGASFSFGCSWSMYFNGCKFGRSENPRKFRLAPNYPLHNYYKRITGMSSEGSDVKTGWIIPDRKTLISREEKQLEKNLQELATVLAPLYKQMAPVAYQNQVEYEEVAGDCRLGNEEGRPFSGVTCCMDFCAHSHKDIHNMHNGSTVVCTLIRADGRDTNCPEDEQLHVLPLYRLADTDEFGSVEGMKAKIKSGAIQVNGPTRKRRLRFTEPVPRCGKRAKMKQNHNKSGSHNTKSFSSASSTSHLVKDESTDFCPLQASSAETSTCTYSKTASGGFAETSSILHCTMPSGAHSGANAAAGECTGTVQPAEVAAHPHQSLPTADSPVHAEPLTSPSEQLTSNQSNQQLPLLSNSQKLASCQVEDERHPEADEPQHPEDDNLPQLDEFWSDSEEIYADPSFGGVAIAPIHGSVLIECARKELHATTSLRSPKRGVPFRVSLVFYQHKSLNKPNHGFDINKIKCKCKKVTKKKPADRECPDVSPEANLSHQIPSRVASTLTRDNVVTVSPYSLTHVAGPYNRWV

Results are given in words; binding and its absence hold for the method and conditions named. Binding seen in cells or lysates may run through a third protein. Some binding calls cover weakened binding; strength is not graded here.

The target of experiment [1] is Chd4 (endogenous in mouse ESCs) (mouse (endogenous in V6.5 ESCs)) (UniProt Q6PDQ2). The experiment is described as follows: co-IP; wild type ESC nuclear extracts treated with benzonase; anti-Chd4 antibody; western blot; Tet1-/- ESCs as negative control.
Experiment [2] deals with Chd4 in HEK293T cells (UniProt Q14839). The experiment is described as follows: co-IP; HEK293T cells exogenously expressing Tet1-FL; anti-Chd4 antibody; empty vector cells as negative control.

In the case of “Tet1 (wild type, endogenous in Tet1+/+ ESCs) (from UniProt Q3URK3 1-2039)”, the binding entry in experiment [1] is listed as “binds weakly”.
Turning to “full length Tet1 (Tet1-FL), exogenously expressed in HEK293T cells (from UniProt Q3URK3 1-2039)”, the binding entry in experiment [2] is given as “binds weakly”.
